Results reported in patent publication US20230008508A1, “COMBINATION THERAPIES FOR THE TREATMENT OF CANCER” (H. LEE MOFFITT CANCER CENTER AND RESEARCH INSTITUTE, INC., priority 2019, published 2023).
At least one compound was matched to its structure with a doubt left.

How the values were obtained:
Assay type in all cases: cell-based
HCC95 cells = experiment: Cell proliferation and survival (cell cycle arrest, annexin V apoptosis); settings: FIG. 16
Protocol: (§1) Cell cycle arrest and apoptosis are increased by pramlintide and HDACi in HCC95 lung SCC and H1975 lung adenocarcinoma cell lines.
(§2) In fact, it was observed that both pramlintide and HDACi treatment reduces ΔNp63 in H1975 lung adenocarcinoma (LUAD) cells (FIG. 15). […] To investigate what effects panobinostat has on the glycolytic rate of HCC95 and H1975 cells, glycolysis was measured by ECAR showing in both […] glycolysis was decreased with treatment (FIG. 17).

H1975 cells = experiment: as above; settings: FIG. 16
Protocol: as §1, §2

cancer = experiment: Inhibitor (IC50) curves, pramlintide with and without panobinostat; settings: pramlintide curves without panobinostat and at panobinostat IC20 and IC40; FIG. 18
[1] = test system: H1975 lung adenocarcinoma cells; experiment: Glycolytic rate measured by ECAR; settings: FIG. 17
Protocol: (§3) Glycolysis as measured by ECAR in HCC95 lung SCC and H1975 lung adenocarcinoma cells are decreased by pramlintide.
as §2

HCC95 lung SCC cells = experiment: Glycolytic rate measured by ECAR; settings: FIG. 17
Protocol: as §3, §2

Cc1[nH]c2ccccc2c1CCNCc1ccc(/C=C/C(=O)NO)cc1 [panobinostat]
Apoptosis (annexin V staining) (HCC95 cells; HCC95): increased apoptosis | Proliferation (HCC95 cells; HCC95 cells): reduced proliferation | Cell cycle arrest (HCC95 cells; HCC95 lung SCC): increased | Apoptosis (annexin V staining) (H1975 cells; H1975): increased apoptosis | Proliferation (H1975 cells; H1975 cells): reduced proliferation | Cell cycle arrest (H1975 cells; H1975 lung adenocarcinoma): increased | Response in inhibitor (IC50) curves (cancer): did have an effect | Glycolysis (ECAR) [1]: decreased | Glycolysis (ECAR) (HCC95 lung SCC cells): decreased
